Reference: paper PMC8525514
These are yes or no findings as the source states them, for the method shown. Some binding calls cover weakened binding; strength is not graded here. Tags and fused reporters may be left off the sequences shown.

Assays:
[1] = target: T1, RPN10_38GA39 > HS (m1), yeast two-hybrid fusion (A. thaliana) (UniProt P55034); assay: two-hybrid; directed assays, Matchmaker Gold (Clontech) or DUALhybrid (Dualsystems Biotech) system; growth on -L-W-H-A medium, 28°C, 5 days
T1 sequence: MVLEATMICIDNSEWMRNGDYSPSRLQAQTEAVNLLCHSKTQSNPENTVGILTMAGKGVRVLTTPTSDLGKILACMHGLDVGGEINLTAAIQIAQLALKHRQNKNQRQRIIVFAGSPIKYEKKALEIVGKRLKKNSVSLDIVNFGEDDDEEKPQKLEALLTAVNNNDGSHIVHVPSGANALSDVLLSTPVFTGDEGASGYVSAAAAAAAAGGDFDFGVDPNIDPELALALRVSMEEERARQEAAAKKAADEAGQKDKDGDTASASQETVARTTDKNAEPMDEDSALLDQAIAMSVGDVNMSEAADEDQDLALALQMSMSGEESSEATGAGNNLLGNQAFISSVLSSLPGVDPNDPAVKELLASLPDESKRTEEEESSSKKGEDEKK

[2] = target: T2, RPN10_56GKG58 > K (m2), yeast two-hybrid fusion (A. thaliana) (UniProt P55034); assay: as above
T2 sequence: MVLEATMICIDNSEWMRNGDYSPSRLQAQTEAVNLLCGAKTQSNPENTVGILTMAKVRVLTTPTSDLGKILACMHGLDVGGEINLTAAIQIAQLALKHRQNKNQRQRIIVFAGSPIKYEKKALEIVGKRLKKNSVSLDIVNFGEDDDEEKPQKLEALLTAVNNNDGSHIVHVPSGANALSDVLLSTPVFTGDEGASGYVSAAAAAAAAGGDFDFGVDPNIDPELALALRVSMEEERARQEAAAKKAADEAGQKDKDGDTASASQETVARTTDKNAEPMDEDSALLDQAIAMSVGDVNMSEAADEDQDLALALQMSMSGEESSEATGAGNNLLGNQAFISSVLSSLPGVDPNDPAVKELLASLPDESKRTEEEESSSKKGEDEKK

binding [1]: binds | binding [2]: binds
B1: A. thaliana RADIATION …23 (RAD23B) protein, yeast two-hybrid fusion (protein, UniProt Q84L33 1-371)
chain: MKLTVKTLKGSHFEIRVLPSDTIMAVKKNIEDSQGKDNYPCGQQLLIHNGKVLKDETSLVENKVTEEGFLVVMLSKSKSGGSAGQASVQTSSVSQPVSATTSSTKPAAPSTTQSSPVPASPIPAQEQPAAQTDTYGQAASTLVSGSSLEQMVQQIMEMGGGSWDKETVTRALRAAYNNPERAVDYLYSGIPQTAEVAVPVPEAQIAGSGAAPVAPASGGPNSSPLDLFPQETVAAAGSGDLGTLEFLRNNDQFQQLRTMVHSNPQILQPMLQELGKQNPQLLRLIQENQAEFLQLVNEPYEGSDGEGDMFDQPEQEMPHAINVTPAEQEAIQRLEAMGFDRALVIEAFLACDRNEELAANYLLENSGDFED
